Measured values as given in article doi:10.1101/2024.01.11.570615.
These are yes or no findings as the source states them, for the method shown. Some entries that bind do so weakly or less than the wild type. Sequences can lack the tags named with a protein.

What was measured:
[1] = target: T1, BARELY ANY MERISTEM1 (BAM1)-GFP (Arabidopsis thaliana) (UniProt O49545); assay: confocal microscopy of fluorescent peptide on the plasma membrane of root cells
T1 sequence: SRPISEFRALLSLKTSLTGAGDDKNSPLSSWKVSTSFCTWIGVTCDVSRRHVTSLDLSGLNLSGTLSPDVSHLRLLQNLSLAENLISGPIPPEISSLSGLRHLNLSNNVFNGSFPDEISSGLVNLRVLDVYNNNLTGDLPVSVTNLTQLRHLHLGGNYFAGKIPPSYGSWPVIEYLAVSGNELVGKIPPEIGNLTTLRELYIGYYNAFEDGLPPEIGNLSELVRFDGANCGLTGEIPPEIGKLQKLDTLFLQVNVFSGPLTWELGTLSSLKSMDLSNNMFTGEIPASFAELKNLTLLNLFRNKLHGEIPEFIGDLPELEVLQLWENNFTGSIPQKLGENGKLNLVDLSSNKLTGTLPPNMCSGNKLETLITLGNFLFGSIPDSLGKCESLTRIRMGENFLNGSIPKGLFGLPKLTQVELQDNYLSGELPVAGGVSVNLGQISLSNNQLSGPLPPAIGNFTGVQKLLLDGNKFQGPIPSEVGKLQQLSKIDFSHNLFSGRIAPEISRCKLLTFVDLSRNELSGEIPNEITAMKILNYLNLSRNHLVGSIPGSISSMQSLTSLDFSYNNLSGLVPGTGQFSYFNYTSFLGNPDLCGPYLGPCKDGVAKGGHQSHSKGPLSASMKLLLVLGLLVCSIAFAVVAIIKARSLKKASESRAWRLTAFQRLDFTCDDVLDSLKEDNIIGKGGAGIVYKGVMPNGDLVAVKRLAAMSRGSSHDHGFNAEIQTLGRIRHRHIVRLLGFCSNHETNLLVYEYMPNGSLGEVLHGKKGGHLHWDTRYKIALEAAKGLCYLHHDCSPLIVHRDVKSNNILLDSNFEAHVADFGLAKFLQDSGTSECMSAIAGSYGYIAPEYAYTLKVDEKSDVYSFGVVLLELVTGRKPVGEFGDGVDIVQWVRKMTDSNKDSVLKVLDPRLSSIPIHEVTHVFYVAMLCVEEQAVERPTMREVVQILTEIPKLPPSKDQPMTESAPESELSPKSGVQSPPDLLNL

[2] = target: T2, PEP RECEPTOR 1 (PEPR1)-GFP (Arabidopsis thaliana) (UniProt Q9SSL9); assay: as above
T2 sequence: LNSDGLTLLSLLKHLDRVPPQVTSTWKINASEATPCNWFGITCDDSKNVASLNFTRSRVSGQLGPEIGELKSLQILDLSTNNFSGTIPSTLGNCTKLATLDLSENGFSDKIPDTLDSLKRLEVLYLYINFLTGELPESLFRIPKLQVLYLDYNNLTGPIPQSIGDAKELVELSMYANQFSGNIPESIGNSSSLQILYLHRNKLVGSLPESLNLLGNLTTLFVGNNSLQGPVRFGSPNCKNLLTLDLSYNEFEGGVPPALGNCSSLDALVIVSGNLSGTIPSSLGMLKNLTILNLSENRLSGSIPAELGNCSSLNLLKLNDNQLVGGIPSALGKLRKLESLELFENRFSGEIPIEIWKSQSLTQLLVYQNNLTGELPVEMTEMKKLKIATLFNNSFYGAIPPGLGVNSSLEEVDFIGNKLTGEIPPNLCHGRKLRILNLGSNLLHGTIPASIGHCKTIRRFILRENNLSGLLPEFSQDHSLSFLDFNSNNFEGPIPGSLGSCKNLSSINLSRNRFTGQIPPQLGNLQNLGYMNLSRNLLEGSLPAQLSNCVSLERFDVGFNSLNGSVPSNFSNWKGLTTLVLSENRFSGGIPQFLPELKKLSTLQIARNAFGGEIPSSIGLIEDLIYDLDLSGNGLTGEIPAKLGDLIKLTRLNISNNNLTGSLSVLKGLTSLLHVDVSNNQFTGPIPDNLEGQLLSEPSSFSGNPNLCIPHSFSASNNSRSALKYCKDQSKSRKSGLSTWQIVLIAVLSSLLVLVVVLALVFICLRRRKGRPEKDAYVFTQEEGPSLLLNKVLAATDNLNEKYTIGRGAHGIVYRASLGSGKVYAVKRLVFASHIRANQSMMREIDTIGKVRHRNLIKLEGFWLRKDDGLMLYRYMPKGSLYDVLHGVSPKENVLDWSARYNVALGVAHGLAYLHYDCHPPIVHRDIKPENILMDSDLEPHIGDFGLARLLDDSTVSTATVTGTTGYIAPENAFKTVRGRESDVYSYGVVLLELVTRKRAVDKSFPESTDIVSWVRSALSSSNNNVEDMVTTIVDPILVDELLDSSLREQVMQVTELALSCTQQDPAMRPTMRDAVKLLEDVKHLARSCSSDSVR

ATKVKAKQRGKEKVSSGRPGQHN (peptide, UniProt Q9LV87 70-92, TAMRA (position not given)) [pep1-TAMRA]
binding [1]: no binding (tested: 200 nM) | binding [2]: binds
